According to the supplement of paper PMC10338343:
± gives the standard deviation. Only a part is listed here, and it is no random draw. Many of these values have a large error. Some of the results follow.

test system: MILI (PIWIL2) piRISC loaded with L1MC piRNA (26 nt); test: pre-steady-state target cleavage rate (min^-1); higher = faster piRNA-guided slicing of the target; conditions: guide: L1MC piRNA 5'p-UAACUAAAUACUAUGCAAGCUGUAGG; auxiliary factor: none (no GTSF1)
Method in brief: (§1)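 In Cleave-'n-Seq, a transcribed, DNA-blocked target RNA library (0.1 nM) was combined with 1 nM active affinity-purified piRISC bearing one synthetic guide, with or without 500 nM GTSF1 partner protein. Reactions ran in HEPES–potassium acetate buffer at 33 °C for 0–8 or 0–960 min. Uncleaved targets were sequenced and normalised to depth and to weakly complementary targets, three trials were pooled, and k3 was capped at 0.0001 min^-1. The pre-steady-state cleavage rate was obtained by fitting a burst-and-steady-state model.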

Sequence | pre-steady-state target cleavage rate
UCCUCCUACACCUUCCAUAGUAUUUAGUUA | 0.000829 ± 0.0062
UCCUGCAUGAGCUUGCAUAGUAUUUUCAAA | 0.000695 ± 0.0074
UCCUGCUACAGCUUCCAUAGUAUUUUGUUA | 0.000753 ± 0.0081
UCCUCCUACAGCUUGCAUAGCUAUUUAGUUA | 0.00147 ± 0.0047
UCCUGGAUGAGCUUGCAUAGUAUUAACAAA | 0.00075 ± 0.0071
UCCUGGUACAGCAAGCAUAGUAUUUAGAAA | 0.0011 ± 0.0048
UCCUCCUACAGCUUCGAUAGUAUUUAGAAA | 0.000568 ± 0.0082
UCCUGGAUGUCGAAGCAUAGUAUUUUGAUA | 0.000248 ± 0.018
UCCUGCUACAGCUUGCAUAGUUUUAGUUA | 0.00124 ± 0.0048
UCCUGGUACAGCUUGCAUAGUAAAUAGUAA | 0.00187 ± 0.005
UCCUGGAUGUCGAUGCAUAGUAUAUUGUUA | 0.00186 ± 0.0049
UCCUGGUACAGCUUGCUUAGUAUUUUCAAA | 0.00157 ± 0.0043
UCCUGGAACAGCUUGCUAAGUAUUUUCAAA | 0.000859 ± 0.0076
UCCUGGAACAGCUUCGAUAGUAUUUUCAAA | 0.000398 ± 0.011
UCCUGCUACAGCUUGCAUAGUUUUUAGAAA | 0.00105 ± 0.0057
UCCUGGAACAGCUUGCAUACUAUUUACAAA | 0.00101 ± 0.0053

test system: MIWI (PIWIL1) piRISC loaded with L1MC piRNA (30 nt); test: as above; conditions: guide: L1MC piRNA 5'p-UAACUAAAUACUAUGCAAGCUGUAGGUCCU; auxiliary factor: none (no GTSF1)
Method in brief: as §1

Sequence | pre-steady-state target cleavage rate
UCCUGCUACAGGAAGCAUAGUAUUUACAAA | 0.000458 ± 0.016
UCCUGGAAGUGCUUGCAUAGUAUUUAGAAA | 0.00283 ± 0.003
UCCUGGAUGUCGAAGCACAGUAUUUAGUUA | 0.000899 ± 0.007
UCCUCCUACAGCUUGCAUAGUAUUAUCUAA | 0.00142 ± 0.0034
UCCUGGAUGUCGAAGCAUAGUAUUUAGUGUA | 0.00091 ± 0.0072
UCCUGGAUGAGCUUGCAAUCUAUUUAGAAA | 0.000257 ± 0.0085
UCCUGGAUGAGCUUGCAUACAAUUUACAAA | 0.000909 ± 0.0081
UCCUGGAUCAGCUUGCAUACAAUUUAGAAA | 0.00108 ± 0.0062
UCCUGGAUCAGCUUCGAUAGUAUUUAGUAA | 0.00148 ± 0.0041
UCCUCCUACAGCUUGCAUAGAAUUUACAAA | 0.00197 ± 0.0028
UCCUGCUACAGCUUGCAUAGUAUUUAUUA | 0.000267 ± 0.013
UCCUGCUUCAGCUUCCAUAGUAUUUAGUUA | 0.00253 ± 0.0026
UCCUGGAACAGCUUGCAUAGUUUUUACAAA | 0.00198 ± 0.0032
UCCUGGAUGUGCUACGAUAGUAUUUAGAAA | 0.000805 ± 0.0088
UCCUGCUACAGCUUGCAUAGUAUAAUGAAA | 0.00143 ± 0.0053
UCCUGGAUGAGCUUGGAUUGUAUUUAGUUA | 0.00085 ± 0.0089
UCCUGGAAGUCCUUGCAUAGUAUUUAGAAA | 0.00214 ± 0.003
UCCUGCUACAGCUUGCAUAGUAUUAUCUAA | 0.0013 ± 0.0066
UCCUGGAUGUCGUUGCAUAGUUAAAUCAAA [g10:g18:cont:t1A] | 0.000555 ± 0.011
UCCUGGAACAGCUUCCAUAGUAUUUACUUA | 0.00111 ± 0.0066

Sequence | pre-steady-state target cleavage rate
UCCUGCUACAGCUUGCAUAGAUUUAGUUA | 0.000768 ± 0.01
UCCUGGAUGUGCUUCCAUAGUAUUUAGUUA | 0.00222 ± 0.0026
UCCUGGAACAGCUUCCAUAGUAUUUACAAA | 0.000705 ± 0.013
UCCUGGAUGUCCUUGCAAUGUAUUUAGUAA | 0.000948 ± 0.0074
UCCUCCUACACCUUCCAUAGUAUUUAGUUA | 0.0014 ± 0.0031
UCCUGCAUGAGCUUGCAUAGUAUUUUCAAA | 0.00169 ± 0.0035
UCCUGCUACAGCUUCCAUAGUAUUUUGUUA | 0.00161 ± 0.0058
UCCUCCUACAGCUUGCAUAGCUAUUUAGUUA | 0.00177 ± 0.0044
UCCUGGAUGAGCUUGCAUAGUAUUAACAAA | 0.00188 ± 0.004
UCCUGGUACAGCAAGCAUAGUAUUUAGAAA | 0.000664 ± 0.0072
UCCUCCUACAGCUUCGAUAGUAUUUAGAAA | 0.000305 ± 0.0086
UCCUGGAUGUCGAAGCAUAGUAUUUUGAUA | 0.000392 ± 0.016
UCCUGCUACAGCUUGCAUAGUUUUAGUUA | 0.000954 ± 0.0065
UCCUGGUACAGCUUGCAUAGUAAAUAGUAA | 0.00221 ± 0.004
UCCUGGUACAGCUUGCUUAGUAUUUUCAAA | 0.000945 ± 0.0046
UCCUGGAACAGCUUGCUAAGUAUUUUCAAA | 0.000813 ± 0.009
UCCUGGAACAGCUUCGAUAGUAUUUUCAAA | 0.000697 ± 0.01
UCCUGCUACAGCUUGCAUAGUUUUUAGAAA | 0.00296 ± 0.0032
UCCUGGAACAGCUUGCAUACUAUUUACAAA | 0.00233 ± 0.0039

test system: EfPiwi piRISC loaded with L1MC piRNA (26 nt); test: pre-steady-state target cleavage rate (min^-1); guide: L1MC piRNA 5'p-UAACUAAAUACUAUGCAAGCUGUAGG; MIWI and MILI are mouse PIWI proteins and EfPiwi is from a freshwater sponge; tags in brackets are library labels; higher = faster piRNA-guided slicing of the target; conditions: auxiliary factor: 500 nM Ephydatia muelleri Gtsf1
Method in brief: as §1

Sequence | pre-steady-state target cleavage rate
UCCUGCUACAGGAAGCAUAGUAUUUACAAA | 0.000346 ± 0.011
UCCUGGAAGUGCUUGCAUAGUAUUUAGAAA | 0.00379 ± 0.0018
UCCUGGAUGUCGAAGCACAGUAUUUAGUUA | 0.000824 ± 0.007
UCCUCCUACAGCUUGCAUAGUAUUAUCUAA | 0.00413 ± 0.0033
UCCUGGAUGUCGAAGCAUAGUAUUUAGUGUA | 0.000205 ± 0.023
UCCUGGAUGAGCUUGCAAUCUAUUUAGAAA | 0.000411 ± 0.01
UCCUGGAUGAGCUUGCAUACAAUUUACAAA | 0.000304 ± 0.013
UCCUGGAUCAGCUUGCAUACAAUUUAGAAA | 0.00145 ± 0.0042
UCCUGGAUCAGCUUCGAUAGUAUUUAGUAA | 0.000629 ± 0.0058
UCCUCCUACAGCUUGCAUAGAAUUUACAAA | 0.00295 ± 0.0029
UCCUGCUACAGCUUGCAUAGUAUUUAUUA | 0.00254 ± 0.0037
UCCUGCUUCAGCUUCCAUAGUAUUUAGUUA | 0.00322 ± 0.0013
UCCUGGAACAGCUUGCAUAGUUUUUACAAA | 0.000834 ± 0.0053
UCCUGGAUGUGCUACGAUAGUAUUUAGAAA | 0.000306 ± 0.0092
UCCUGCUACAGCUUGCAUAGUAUAAUGAAA | 0.00473 ± 0.0032
UCCUGGAUGAGCUUGGAUUGUAUUUAGUUA | 0.000345 ± 0.013
UCCUGGAAGUCCUUGCAUAGUAUUUAGAAA | 0.00315 ± 0.0023
UCCUGCUACAGCUUGCAUAGUAUUAUCUAA | 0.00395 ± 0.0027
UCCUGGAUGUCGUUGCAUAGUUAAAUCAAA [g10:g18:cont:t1A] | 0.000615 ± 0.012
UCCUGGAACAGCUUCCAUAGUAUUUACUUA | 0.000807 ± 0.0039

Sequence | pre-steady-state target cleavage rate
UCCUGCUACAGCUUGCAUAGAUUUAGUUA | 0.00286 ± 0.0015
UCCUGGAUGUGCUUCCAUAGUAUUUAGUUA | 0.00277 ± 0.0019
UCCUGGAACAGCUUCCAUAGUAUUUACAAA | 0.00119 ± 0.0032
UCCUGGAUGUCCUUGCAAUGUAUUUAGUAA | 0.00111 ± 0.0067
UCCUCCUACACCUUCCAUAGUAUUUAGUUA | 0.00329 ± 0.0018
UCCUGCAUGAGCUUGCAUAGUAUUUUCAAA | 0.000989 ± 0.0042
UCCUGCUACAGCUUCCAUAGUAUUUUGUUA | 0.0012 ± 0.0038
UCCUCCUACAGCUUGCAUAGCUAUUUAGUUA | 0.00189 ± 0.0023
UCCUGGAUGAGCUUGCAUAGUAUUAACAAA | 0.00156 ± 0.005
UCCUGGUACAGCAAGCAUAGUAUUUAGAAA | 0.00185 ± 0.0021
UCCUCCUACAGCUUCGAUAGUAUUUAGAAA | 0.00217 ± 0.0024
UCCUGGAUGUCGAAGCAUAGUAUUUUGAUA | 0.000248 ± 0.0091
UCCUGCUACAGCUUGCAUAGUUUUAGUUA | 0.00248 ± 0.0013
UCCUGGUACAGCUUGCAUAGUAAAUAGUAA | 0.00211 ± 0.0032
UCCUGGAUGUCGAUGCAUAGUAUAUUGUUA | 0.000675 ± 0.0082
UCCUGGUACAGCUUGCUUAGUAUUUUCAAA | 0.000633 ± 0.011
UCCUGGAACAGCUUGCUAAGUAUUUUCAAA | 0.00134 ± 0.0073
UCCUGGAACAGCUUCGAUAGUAUUUUCAAA | 0.000623 ± 0.0065
UCCUGCUACAGCUUGCAUAGUUUUUAGAAA | 0.00343 ± 0.0019
UCCUGGAACAGCUUGCAUACUAUUUACAAA | 0.0021 ± 0.0033
